The list shows a part of the results. At the low end of the ranking, values are background and their order means little.

In this assay the target is T1, PUM1 PUF domain R3-THE R4-TFR C935T + R936H + Q939E + N971T + H972F + Q975R (UniProt Q14671).
T1 sequence: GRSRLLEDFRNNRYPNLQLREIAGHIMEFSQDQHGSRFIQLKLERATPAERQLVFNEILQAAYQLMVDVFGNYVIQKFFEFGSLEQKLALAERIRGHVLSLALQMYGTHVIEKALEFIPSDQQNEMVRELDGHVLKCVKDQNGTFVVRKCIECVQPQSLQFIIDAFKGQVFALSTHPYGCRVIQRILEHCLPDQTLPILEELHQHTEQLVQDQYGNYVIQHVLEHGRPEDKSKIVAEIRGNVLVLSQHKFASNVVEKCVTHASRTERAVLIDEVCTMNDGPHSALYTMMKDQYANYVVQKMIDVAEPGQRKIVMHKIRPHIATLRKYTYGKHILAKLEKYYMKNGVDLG
The following applies: yeast three-hybrid, YBZ-1, SC-Leu-His + 0.5 mM 3-AT, 4 days.
Turning to “GGCUAGAACUAGUGGAUCCCCCGGCGCCCGGCGGCUCGAGCCCGGGUAAGCGGGCGUAGUCUGCAUGCCGCCGGGCGCCAUGCCUGCAGGUCGACUCUAGAAAACAUG”, the binding signal (log2 enrichment (interaction score)) is below -6.25.

“GGCUAGAACUAGUGGAUCCCCCGGCGCCCGGCGGCUCGAGCCCGGGUAAGUUUAUAUCGUCUGCAUGCCGCCGGGCGCCAUGCCUGCAGGUCGACUCUAGAAAACAUG”: the binding signal (log2 enrichment (interaction score)) is below -7.16.

Consider “GGCUAGAACUAGUGGAUCCCCCGGCGCCCGGCGGCUCGAGCCCGGGUAAGUGUCCGUCGUCUGCAUGCCGCCGGGCGCCAUGCCUGCAGGUCGACUCUAGAAAACAUG”, for which the binding signal (log2 enrichment (interaction score)) was -7.3.

On to “GGCUAGAACUAGUGGAUCCCCCGGCGCCCGGCGGCUCGAGCCCGGGUAAGUUUACAGGGUCUGCAUGCCGCCGGGCGCCAUGCCUGCAGGUCGACUCUAGAAAACAUG”, for which the binding signal (log2 enrichment (interaction score)) was -7.15.

Turning to “GGCUAGAACUAGUGGAUCCCCCGGCGCCCGGCGGCUCGAGCCCGGGUAAGUUUACGCUGUCUGCAUGCCGCCGGGCGCCAUGCCUGCAGGUCGACUCUAGAAAACAUG”, the binding signal (log2 enrichment (interaction score)) is -6.8.

As to “GGCUAGAACUAGUGGAUCCCCCGGCGCCCGGCGGCUCGAGCCCGGGUAAGUUUACUGAGUCUGCAUGCCGCCGGGCGCCAUGCCUGCAGGUCGACUCUAGAAAACAUG”, the binding signal (log2 enrichment (interaction score)) is below -6.14.
